The results in this text go back to paper PMC6053357.

By UniProt entry, the sequences of proteins in these tests, tags left out. Residues count along the entry.
UniProt O75581, residues 20-1613: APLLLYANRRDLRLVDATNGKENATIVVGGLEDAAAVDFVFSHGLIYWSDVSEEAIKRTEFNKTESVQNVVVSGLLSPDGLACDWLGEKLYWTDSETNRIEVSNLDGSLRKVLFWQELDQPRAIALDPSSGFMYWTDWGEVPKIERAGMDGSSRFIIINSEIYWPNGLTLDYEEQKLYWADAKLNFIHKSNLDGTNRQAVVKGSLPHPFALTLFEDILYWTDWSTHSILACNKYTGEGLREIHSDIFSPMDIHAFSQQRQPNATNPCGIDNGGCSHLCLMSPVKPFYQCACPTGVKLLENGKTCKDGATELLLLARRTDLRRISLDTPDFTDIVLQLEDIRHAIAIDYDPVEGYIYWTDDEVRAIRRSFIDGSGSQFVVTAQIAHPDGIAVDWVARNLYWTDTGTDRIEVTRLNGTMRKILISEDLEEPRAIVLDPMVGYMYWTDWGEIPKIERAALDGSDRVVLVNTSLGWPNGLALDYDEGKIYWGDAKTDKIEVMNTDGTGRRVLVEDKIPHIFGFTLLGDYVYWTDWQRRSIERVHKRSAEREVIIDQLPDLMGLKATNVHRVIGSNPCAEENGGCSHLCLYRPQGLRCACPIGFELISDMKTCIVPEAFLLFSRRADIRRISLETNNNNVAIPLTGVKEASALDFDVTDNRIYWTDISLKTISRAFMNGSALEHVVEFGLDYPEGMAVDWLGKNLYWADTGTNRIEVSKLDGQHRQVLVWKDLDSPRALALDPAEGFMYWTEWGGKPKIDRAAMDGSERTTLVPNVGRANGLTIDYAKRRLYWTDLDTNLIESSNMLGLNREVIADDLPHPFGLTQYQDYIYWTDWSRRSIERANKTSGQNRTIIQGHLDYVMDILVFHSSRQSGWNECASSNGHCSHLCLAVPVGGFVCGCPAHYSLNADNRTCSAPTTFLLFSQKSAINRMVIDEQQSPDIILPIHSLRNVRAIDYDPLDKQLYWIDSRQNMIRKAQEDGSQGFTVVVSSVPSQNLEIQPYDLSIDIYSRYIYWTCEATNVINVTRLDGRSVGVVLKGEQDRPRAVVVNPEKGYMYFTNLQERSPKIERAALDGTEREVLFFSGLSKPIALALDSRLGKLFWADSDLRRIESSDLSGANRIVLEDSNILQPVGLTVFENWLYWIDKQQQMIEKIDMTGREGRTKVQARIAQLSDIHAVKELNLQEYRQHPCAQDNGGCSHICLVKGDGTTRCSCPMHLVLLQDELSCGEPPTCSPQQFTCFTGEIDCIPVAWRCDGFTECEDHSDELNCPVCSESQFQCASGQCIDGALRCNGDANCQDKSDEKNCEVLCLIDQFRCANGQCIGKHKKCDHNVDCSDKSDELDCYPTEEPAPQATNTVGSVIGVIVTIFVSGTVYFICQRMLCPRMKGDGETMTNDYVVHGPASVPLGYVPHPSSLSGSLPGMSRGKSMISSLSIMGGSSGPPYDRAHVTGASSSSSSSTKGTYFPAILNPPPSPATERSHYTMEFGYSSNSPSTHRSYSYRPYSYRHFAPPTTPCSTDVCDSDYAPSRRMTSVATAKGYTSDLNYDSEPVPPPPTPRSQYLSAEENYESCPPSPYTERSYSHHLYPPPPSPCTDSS
UniProt P58335, residues 34-489: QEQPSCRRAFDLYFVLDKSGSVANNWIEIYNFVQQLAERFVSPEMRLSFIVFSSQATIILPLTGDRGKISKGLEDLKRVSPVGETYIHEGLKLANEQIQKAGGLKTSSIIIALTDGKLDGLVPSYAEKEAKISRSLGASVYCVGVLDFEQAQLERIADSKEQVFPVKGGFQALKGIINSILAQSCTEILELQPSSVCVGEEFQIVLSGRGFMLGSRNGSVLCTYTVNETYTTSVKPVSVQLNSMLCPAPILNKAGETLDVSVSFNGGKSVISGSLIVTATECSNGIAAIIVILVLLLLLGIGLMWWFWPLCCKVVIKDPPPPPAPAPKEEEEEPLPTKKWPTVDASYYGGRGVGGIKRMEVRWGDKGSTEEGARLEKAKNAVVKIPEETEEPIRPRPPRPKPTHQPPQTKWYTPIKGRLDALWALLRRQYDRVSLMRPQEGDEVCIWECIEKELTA

The assay concerns the target low-density lipoprotein receptor 6 (human (endogenous in GC cells)) (UniProt O75581). The assay is described as follows: co-IP; Pierce Co-IP kit; 10 μg anti-CMG2 or anti-LRP6 antibody (and matched IgG) immobilised on AminoLink Plus coupling resin, incubated with 250 μg GC cell lysate at 4 °C overnight; western blot. (In general: In western blotting, separated proteins are transferred to a membrane and probed.)

Results are given in words; binding and its absence hold for the method and conditions named. In cells and extracts the contact can be indirect. Some entries that bind do so weakly or less than the wild type.

“capillary morphogenesis gene 2 (from UniProt P58335 34-489) (receptor)”: the binding result is given as “binds”.
